PMC3369903
No constants are given. Whether binding was seen depends on the method and setting. Binding seen in cells or lysates may run through a third protein. A yes stands for co-enrichment or nearness to the bait. Other partners may have been found.

Sequences of proteins named here, by UniProt entry; tags and fusion partners are left off. A change or cut given only in a name is not applied to a line headed by its entry. Residues count along the entry.
UniProt P27512, residues 20-289: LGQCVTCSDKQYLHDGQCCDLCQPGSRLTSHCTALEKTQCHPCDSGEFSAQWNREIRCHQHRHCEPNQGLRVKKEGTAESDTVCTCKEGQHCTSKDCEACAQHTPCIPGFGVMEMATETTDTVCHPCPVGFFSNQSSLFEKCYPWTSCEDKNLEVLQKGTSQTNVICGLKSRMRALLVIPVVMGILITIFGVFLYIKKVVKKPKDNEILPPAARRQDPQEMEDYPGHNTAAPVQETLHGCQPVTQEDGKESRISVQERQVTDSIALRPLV
UniProt Q60932: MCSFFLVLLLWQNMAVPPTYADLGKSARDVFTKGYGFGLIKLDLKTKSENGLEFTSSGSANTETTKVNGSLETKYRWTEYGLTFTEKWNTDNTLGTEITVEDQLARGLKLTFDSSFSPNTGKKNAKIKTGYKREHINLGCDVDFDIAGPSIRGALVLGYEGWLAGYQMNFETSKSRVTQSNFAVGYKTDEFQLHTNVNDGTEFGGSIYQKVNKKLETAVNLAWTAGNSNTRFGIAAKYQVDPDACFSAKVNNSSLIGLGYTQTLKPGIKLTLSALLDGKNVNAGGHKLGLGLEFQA

Target: CD40 (mouse (endogenous in NOD and BALB/c splenic CD4loCD40+ T cells)) (UniProt P27512)
Test: affinity purification with mass spectrometry; CD40 immunoprecipitated (FGK45-conjugated magnetic beads) from NOD CD4loCD40+ T cell whole cell extracts; proteins separated by SDS-PAGE, bands identified by LC-LC-MS

binding: binds
Substance: VDAC1 (Voltage-Dependent Anion-selective Channel protein) (from UniProt Q60932)
